From patent publication US8304371B2, “Insecticidal arylpyrrolines” (Bayer Cropscience AG, priority 2008, dated 2012)
Some results were stated once for a whole list of compounds, not compound by compound.

Tests used:
Format in all cases: in vivo
[1] = system: Strain of Green Peach Aphid (Mvzus persicas) which is Resistant to Organic Phosphorus and Carbamate Agents; assay: Test against resistant green peach aphid, spray on egg plant; conditions: active compound concentration 100 ppm; after 7 days
Procedure: (§1) Unless nomentioned otherwise, the test solutions were prepared as follows:
(§2) Containing as solvent: Dimethylformamide, 3 parts by weight; and as emulsifier: Polyoxyethylene alkyl phenyl ether, 1 part by weight
(§3) To prepare the test solution, 1 part by weight of an active compound is mixed with the above-mentioned amount of solvent containing the above-mentioned amount of emulsifier, and the mixture is diluted with water to the desired concentration.
About 30 to 50 of the resistant green peach aphids were inoculated per seedling, onto the leaves of egg plant at the two-true leaf stage, which plant had been cultivated in a pot having a diameter of 6 cm. One day after the inoculation, the test solution at the appropriate concentration was sprayed thereon in a sufficient amount using a spray gun. After the spraying, the plant pot was placed in a greenhouse at 28° C., and after 7 days, the insecticidal activity was calculated. An insecticidal activity of 100% means that all aphids were killed, whereas an insecticidal activity of […] means that no aphid was killed. The test was repeated two times.

[2] = system: Tobacco Cutworm (Spodoptera litura) Larvae; assay: Test against tobacco cutworm (Spodoptera litura) larvae, leaf dip; conditions: active compound concentration 100 ppm; third-instar larvae; after 7 days
Procedure: as §1, §2, §3
The leaves of sweet potato were immersed in the test solution at the appropriate concentration, and the leaves were dried in air. The leaves were then placed in a petri dish having a diameter of 9 cm, and ten third-instar larvae of tobacco cutworm were released therein. The petri dish was placed in a temperature chamber at 25° C. After 2 days and 4 days sweet potato leaves were additionally added. After 7 days, the number of dead larvae was counted, to calculate the insecticidal activity. An insecticidal activity of 100% means that all larvae were killed, whereas an insecticidal activity of 0% means that no larva was killed. In the current test, the results of two petri dishes for each partition were averaged.

[3] = system: Cattle Tick (Boophilus microplus); assay: Test against cattle tick, injection; conditions: 20 μg/animal injected; after 7 days; 100% means that all eggs are infertile
Procedure: (§4) Solvent: Dimethylsulfoxide
In order to make a suitable test solution, 10 mg of an active compound is dissolved in 0.5 ml of the above mentioned solvent, and the mixture is diluted with water to a predetermined concentration.
The test solution is injected into the abdomens of five fully-fed female adult cattle ticks. The cattle ticks are transferred to a replica plate, and are bred in a breeding vessel for a certain time period. Egg deposition of fertile eggs is monitored.
After 7 days the mortality rate of the cattle ticks is measured. 100% means that all eggs are infertile; and 0% means that all eggs are fertile.

[4] = system: Sheep Blowfly (Lucillia cuprina); assay: Test against sheep blowfly; conditions: active compound concentration 100 ppm; after 2 days
Procedure: as §4
(§5) In order to make a suitable test solution, 10 mg of an active compound is dissolved in 0.5 ml of the solvent, and the mixture is diluted with water to a predetermined concentration.
Minced horse meat having a size of 1 square centimeter, and 0.5 ml of the test solution are placed in a test tube, and about 20 to 30 adult sheep blowflies are introduced therein.
After 2 days the mortality rate of the sheep blowflies is measured. 100% means that all of the sheep blowflies have been killed, and 0% means that all are alive.

[5] = system: Housefly (Musca domestica); assay: Test against housefly; conditions: active compound concentration 100 ppm; adult houseflies; after 2 days
Procedure: as §4, §5
In a preliminary stage of the test, a piece of sponge having a certain size is soaked with a mixture of sugar and the test solution is placed in a test container. Ten adult houseflies are introduced to the container, and the container is covered with a perforated lid.
After 2 days, the mortality rate of the houseflies is measured. At that time, 100% means that all of the houseflies have been killed, and 0% means that all are alive.

[6] = system: Cat Fleas (Ctenocephalides fells); assay: Test against cat fleas, blood feeding; conditions: active compound concentration 100 ppm in blood; adult fleas; after 2 days
Procedure: as §4
About 10 to 15 adult cat fleas are provided in a container exclusive for fleas. An exclusive container containing the test solution is covered with Parafilm, reversed upside down, and then mounted on top of the flea container, so that the cat fleas can suck the blood in the container. The test solution is maintained at 37° C., and the flea container is maintained at room temperature. After 2 days the mortality rate of the cat fleas is measured. 100% means that all of the cat fleas have been killed, while 0% means that all are alive.

[7] = system: Nymphs of the tick Amblyomma hebraeum; assay: Amblyomma hebraeum test, nymph immersion; conditions: application rate 100 ppm; immersed one minute; after 2 days
Procedure: as §4
To produce a suitable preparation of active compound. 1 part by weight of active compound is mixed with the stated amount of solvent, and the concentrate is diluted with containing solvent to the desired concentration.
Nymphs of the tick Amblyomma hebraeum are placed in perforated plastic beakers and immersed in aqueous compound solution for one minute. Ticks are transferred to a filter paper in a Petri dish and incubated in a climate chamber for 42 days.
After 2 days mortality in % is determined. 100% means that all the ticks have been killed; 0% means that none of the ticks have been killed.

CCC(=O)NCc1ccc(C2=NCC(c3cc(Cl)cc(Cl)c3)(C(F)(F)F)C2)cc1C(F)(F)F (racemic) [2-210]
≥ 80%: insecticidal activity [1] | insecticidal activity [2]

CCNC(=O)NCc1ccc(C2=NCC(c3cc(Cl)cc(Cl)c3)(C(F)(F)F)C2)cc1C(F)(F)F (racemic) [2-213]
≥ 80%: insecticidal activity [2]

CSCC(=O)NCc1ccc(C2=NCC(c3cc(Cl)cc(Cl)c3)(C(F)(F)F)C2)cc1C(F)(F)F (racemic) [2-214]
≥ 80%: insecticidal activity [1] | insecticidal activity [2]

CC(C)(C)OC(=O)NCc1ccc(C2=NCC(c3cc(C(F)(F)F)c(Cl)c(C(F)(F)F)c3)(C(F)(F)F)C2)cc1C(F)(F)F (racemic) [2-392]
≥ 80%: insecticidal activity [1] | mortality rate [3] | insecticidal activity [2] | mortality rate [4]

N#Cc1cc(C2=NCC(c3cc(Cl)cc(Cl)c3)(C(F)(F)F)C2)ccc1-n1cccn1 (stereo not drawn) [1-35]
≥ 80%: mortality rate [5] | mortality rate [3] | insecticidal activity [2] | mortality rate [4] | mortality rate [6]

N#Cc1cc(C2=NCC(c3cc(Cl)cc(Cl)c3)(C(F)(F)F)C2)ccc1-n1ccnc1 (stereo not drawn) [1-36]
≥ 80%: insecticidal activity [2]

N#Cc1cc(C2=NCC(c3cc(Cl)cc(Cl)c3)(C(F)(F)F)C2)ccc1-n1cnnn1 (stereo not drawn) [1-41]
≥ 80%: insecticidal activity [2]

N#Cc1cc(C2=NCC(c3cc(Cl)cc(Cl)c3)(C(F)(F)F)C2)ccc1-n1ncnn1 (stereo not drawn) [1-42]
≥ 80%: insecticidal activity [1] | insecticidal activity [2]

N#Cc1cc(C2=NCC(c3cc(Br)cc(Br)c3)(C(F)(F)F)C2)ccc1-n1cncn1 (stereo not drawn) [1-94]
≥ 80%: insecticidal activity [1] | activity (mortality in %) [7] | mortality rate [5] | mortality rate [3] | mortality rate [4] | mortality rate [6]

N#Cc1cc(C2=NCC(c3cc(Cl)cc(C(F)(F)F)c3)(C(F)(F)F)C2)ccc1-n1cncn1 (stereo not drawn) [1-95]
≥ 80%: insecticidal activity [1] | activity (mortality in %) [7] | mortality rate [5] | mortality rate [3] | mortality rate [4] | mortality rate [6]

N#Cc1cnn(-c2ncc(C3=NCC(c4cc(Cl)cc(Cl)c4)(C(F)(F)F)C3)cc2C#N)c1 (stereo not drawn) [1-96]
≥ 80%: insecticidal activity [2]

N#Cc1cc(C2=NCC(c3cc(Cl)cc(Cl)c3)(C(F)(F)F)C2)cnc1-n1cc([N+](=O)[O-])cn1 (stereo not drawn) [1-97]
≥ 80%: insecticidal activity [2]

N#Cc1cc(C2=NCC(c3cc(Cl)cc(Cl)c3)(C(F)(F)F)C2)cnc1-n1cc(Cl)cn1 (stereo not drawn) [1-98]
≥ 80%: insecticidal activity [2]

Cc1nnnn1-c1ncc(C2=NCC(c3cc(Cl)cc(Cl)c3)(C(F)(F)F)C2)cc1C#N (stereo not drawn) [1-99]
≥ 80%: mortality rate [3] | insecticidal activity [2] | mortality rate [4]

CC(=O)NCc1ccc(C2=NCC(c3cc(C(F)(F)F)cc(C(F)(F)F)c3)(C(F)(F)F)C2)cc1Br (stereo not drawn) [2-117]
≥ 80%: mortality rate [5] | mortality rate [3] | insecticidal activity [2] | mortality rate [4] | mortality rate [6]

CC(=O)NCc1ccc(C2=NCC(c3cc(Cl)c(Cl)c(Cl)c3)(C(F)(F)F)C2)cc1Cl (stereo not drawn) [2-156]
≥ 80%: activity (mortality in %) [7] | mortality rate [5] | mortality rate [3] | mortality rate [4] | mortality rate [6]

O=C(NCc1ccc(C2=NCC(c3cc(Cl)c(Cl)c(Cl)c3)(C(F)(F)F)C2)cc1Br)C1CC1 (stereo not drawn) [2-170]
≥ 80%: activity (mortality in %) [7] | mortality rate [5] | mortality rate [3] | mortality rate [4] | mortality rate [6]

CC(=O)NCc1ccc(C2=NCC(c3cc(Br)cc(Br)c3)(C(F)(F)F)C2)cc1Br (stereo not drawn) [2-174]
≥ 80%: insecticidal activity [1] | mortality rate [5] | mortality rate [3] | insecticidal activity [2] | mortality rate [4] | mortality rate [6]

O=C(NCc1ccc(C2=NCC(c3cc(Br)cc(Br)c3)(C(F)(F)F)C2)cc1Br)C1CC1 (stereo not drawn) [2-176]
≥ 80%: insecticidal activity [1] | mortality rate [5] | mortality rate [3] | insecticidal activity [2] | mortality rate [4] | mortality rate [6]

NCc1ccc(C2=NCC(c3cc(Cl)c(Cl)c(Cl)c3)(C(F)(F)F)C2)cc1Br (stereo not drawn) [2-194]
≥ 80%: mortality rate [5] | mortality rate [3] | insecticidal activity [2] | mortality rate [4] | mortality rate [6]

CCCNC(=O)NCc1ccc(C2=NCC(c3cc(Cl)c(Cl)c(Cl)c3)(C(F)(F)F)C2)cc1Br (stereo not drawn) [2-196]
≥ 80%: mortality rate [5] | mortality rate [3] | insecticidal activity [2] | mortality rate [4] | mortality rate [6]

CC(C)(C)OC(=O)NCc1ccc(C2=NCC(c3cc(Cl)c(Cl)c(Cl)c3)(C(F)(F)F)C2)cc1C(F)(F)F (stereo not drawn) [2-197]
≥ 80%: insecticidal activity [1] | mortality rate [3] | insecticidal activity [2] | mortality rate [4] | mortality rate [6]

CCNC(=O)NCc1ccc(C2=NCC(c3cc(Cl)c(Cl)c(Cl)c3)(C(F)(F)F)C2)cc1Cl (stereo not drawn) [2-199]
≥ 80%: insecticidal activity [1] | mortality rate [5] | mortality rate [3] | insecticidal activity [2] | mortality rate [4] | mortality rate [6]

CCNC(=O)NCc1ccc(C2=NCC(c3cc(C(F)(F)F)cc(C(F)(F)F)c3)(C(F)(F)F)C2)cc1C(F)(F)F (stereo not drawn) [2-200]
≥ 80%: mortality rate [5] | mortality rate [3] | insecticidal activity [2] | mortality rate [4] | mortality rate [6]

CCNC(=O)NCc1ccc(C2=NCC(c3cc(Cl)c(Cl)c(Cl)c3)(C(F)(F)F)C2)cc1C(F)(F)F (stereo not drawn) [2-201]
≥ 80%: insecticidal activity [1] | mortality rate [5] | mortality rate [3] | insecticidal activity [2] | mortality rate [4] | mortality rate [6]

CC(C)(C)OC(=O)NCc1ccc(C2=NCC(c3cc(Cl)c(Cl)c(Cl)c3)(C(F)(F)F)C2)cc1Br (stereo not drawn) [2-202]
≥ 80%: insecticidal activity [1] | mortality rate [3] | insecticidal activity [2] | mortality rate [4] | mortality rate [6]

O=C(NCc1ccc(C2=NCC(c3cc(Cl)c(Cl)c(Cl)c3)(C(F)(F)F)C2)cc1Br)C(F)(F)F (stereo not drawn) [2-203]
≥ 80%: mortality rate [5] | mortality rate [3] | insecticidal activity [2] | mortality rate [4] | mortality rate [6]

CC(=O)NCc1ccc(C2=NCC(c3cc(Cl)c(Cl)c(C(F)(F)F)c3)(C(F)(F)F)C2)cc1C(F)(F)F (stereo not drawn) [2-204]
≥ 80%: insecticidal activity [2]

CCC(=O)NCc1ccc(C2=NCC(c3cc(Cl)c(Cl)c(Cl)c3)(C(F)(F)F)C2)c2ccccc12 (stereo not drawn) [11-6]
≥ 80%: insecticidal activity [1] | activity (mortality in %) [7] | mortality rate [5] | mortality rate [4] | mortality rate [6]
